{"source": "patent CN1202821A", "about": "“用于从面颊释放药物的组合物和方法” (Theratech Inc, priority 1995, dated 1998)", "experiment": "Double-blind, placebo-controlled crossover study of buccal GLP-1(7-36) amide bilayer tablet: blood glucose, plasma insulin, plasma glucagon", "type": "in vivo, human", "conditions": "400 μg buccal bilayer tablet", "note": "Part of at least one peptide drawing is inferred or uncertain, most often the ends."}
{"molecule": "CC[C@H](C)[C@H](NC(=O)[C@H](Cc1ccccc1)NC(=O)[C@H](CCC(=O)O)NC(=O)[C@H](CCCCN)NC(=O)[C@H](C)NC(=O)[C@H](C)NC(=O)[C@H](CCC(N)=O)NC(=O)CNC(=O)[C@H](CCC(=O)O)NC(=O)[C@H](CC(C)C)NC(=O)[C@H](Cc1ccc(O)cc1)NC(=O)[C@H](CO)NC(=O)[C@H](CO)NC(=O)[C@@H](NC(=O)[C@H](CC(=O)O)NC(=O)[C@H](CO)NC(=O)[C@@H](NC(=O)[C@H](Cc1ccccc1)NC(=O)[C@@H](NC(=O)CNC(=O)[C@H](CCC(=O)O)NC(=O)[C@H](C)NC(=O)[C@@H](N)Cc1c[nH]cn1)[C@@H](C)O)[C@@H](C)O)C(C)C)C(=O)N[C@@H](C)C(=O)N[C@@H](Cc1c[nH]c2ccccc12)C(=O)N[C@@H](CC(C)C)C(=O)N[C@H](C(=O)N[C@@H](CCCCN)C(=O)NCC(=O)N[C@@H](CCCNC(=N)N)C(N)=O)C(C)C", "note": "[GLP-1(7-36)酰胺]", "values": [{"measurement": "time to peak plasma glucagon (above placebo)", "result": "60-75 分钟"}]}
